Source: the supplement of paper PMC8728848
Some of the results follow.

Columns and labels:
Test in all cases: glycan array binding signal (z-score within array); higher = stronger binding
Conditions in all cases: glycan notation: IUPAC condensed, linker removed
[1] = target: Fuc(a1-2)[GalNAc(a1-3)]Gal(b1-3)GlcNAc(b1-3)GalNAc
Outline: (§1)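 From the Consortium for Functional Glycomics database, 3228 arrays were curated, keeping only those whose protein sequence was available. Binding is given as a within-array Z-score averaged across arrays sharing a protein sequence and across linkers. Negative Z-scores can be read as non-binding.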

[2] = target: Fuc(a1-2)[GalNAc(a1-3)]Gal(b1-3)GlcNAc(b1-6)GalNAc
Outline: as §1

[3] = target: Fuc(a1-2)[GalNAc(a1-3)]Gal(b1-4)Glc
Outline: as §1

[4] = target: Fuc(a1-2)[GalNAc(a1-3)]Gal(b1-4)GlcNAc
Outline: as §1

[5] = target: Fuc(a1-2)[GalNAc(a1-3)]Gal(b1-4)GlcNAc(b1-2)Man
Outline: as §1

[6] = target: Fuc(a1-2)[GalNAc(a1-3)]Gal(b1-4)GlcNAc(b1-2)Man(a1-3)[Fuc(a1-2)[GalNAc(a1-3)]Gal(b1-4)GlcNAc(b1-2)Man(a1-6)]Man(b1-4)GlcNAc(b1-4)GlcNAc
Outline: as §1

[7] = target: Fuc(a1-2)[GalNAc(a1-3)]Gal(b1-4)GlcNAc(b1-2)Man(a1-3)[Fuc(a1-2)[GalNAc(a1-3)]Gal(b1-4)GlcNAc(b1-2)Man(a1-6)]Man(b1-4)GlcNAc(b1-4)[Fuc(a1-6)]GlcNAc
Outline: as §1

[8] = target: Fuc(a1-2)[GalNAc(a1-3)]Gal(b1-4)GlcNAc(b1-3)Gal(b1-4)GlcNAc
Outline: as §1

[9] = target: Fuc(a1-2)[GalNAc(a1-3)]Gal(b1-4)GlcNAc(b1-3)Gal(b1-4)GlcNAc(b1-3)Gal(b1-4)GlcNAc
Outline: as §1

[10] = target: Fuc(a1-2)[GalNAc(a1-3)]Gal(b1-4)GlcNAc(b1-3)GalNAc
Outline: as §1

[11] = target: Fuc(a1-2)[GalNAc(a1-3)]Gal(b1-4)GlcNAc(b1-3)[Fuc(a1-2)[GalNAc(a1-3)]Gal(b1-4)GlcNAc(b1-6)]GalNAc
Outline: as §1

[12] = target: Fuc(a1-2)[GalNAc(a1-3)]Gal(b1-4)GlcNAc(b1-6)GalNAc
Outline: as §1

[13] = target: Fuc(a1-2)[GalNAc(a1-3)]Gal(b1-4)[Fuc(a1-3)]GlcNAc
Outline: as §1

[14] = target: Fuc(a1-2)[GalNAc(a1-3)]Gal(b1-4)[Fuc(a1-3)]GlcNAc(b1-3)GalNAc
Outline: as §1

[15] = target: Fuc(a1-2)[GalNAc(a1-4)]Gal(b1-4)GlcNAc
Outline: as §1

[16] = target: Fuc(a1-2)[GalNAc(b1-3)]Gal
Outline: as §1

Fuc(a1-3)GlcNAc = target: Fuc(a1-3)GlcNAc
Outline: as §1

[17] = target: Fuc(a1-3)[Gal(b1-4)]Glc6S
Outline: as §1

[18] = target: Fuc(a1-3)[Gal(b1-4)]GlcNAc
Outline: as §1

[19] = target: Fuc(a1-3)[Gal(b1-4)]GlcNAc(b1-2)Man
Outline: as §1

[20] = target: Fuc(a1-3)[Gal(b1-4)]GlcNAc(b1-2)Man(a1-3)[Fuc(a1-3)[Gal(b1-4)]GlcNAc(b1-2)Man(a1-6)]Man(b1-4)GlcNAc(b1-4)GlcNAc
Outline: as §1

[21] = target: Fuc(a1-3)[Gal(b1-4)]GlcNAc(b1-2)Man(a1-3)[Fuc(a1-3)[Gal(b1-4)]GlcNAc(b1-2)Man(a1-6)]Man(b1-4)GlcNAc(b1-4)[Fuc(a1-6)]GlcNAc
Outline: as §1

[22] = target: Fuc(a1-3)[Gal(b1-4)]GlcNAc(b1-3)Gal(b1-3)[Fuc(a1-4)]GlcNAc
Outline: as §1

[23] = target: Fuc(a1-3)[Gal(b1-4)]GlcNAc(b1-3)Gal(b1-4)[Fuc(a1-3)]GlcNAc
Outline: as §1

[24] = target: Fuc(a1-3)[Gal(b1-4)]GlcNAc(b1-3)Gal(b1-4)[Fuc(a1-3)]GlcNAc(b1-3)Gal(b1-4)[Fuc(a1-3)]GlcNAc
Outline: as §1

[25] = target: Fuc(a1-3)[Gal(b1-4)]GlcNAc(b1-3)GalNAc
Outline: as §1

[26] = target: Fuc(a1-3)[Gal(b1-4)]GlcNAc(b1-6)GalNAc
Outline: as §1

[27] = target: Fuc(a1-3)[Gal(b1-4)]GlcNAc(b1-6)[Gal(b1-3)GlcNAc(b1-3)]Gal(b1-4)Glc
Outline: as §1

[28] = target: Fuc(a1-3)[Gal(b1-4)]GlcNAc6S
Outline: as §1

[29] = target: Fuc(a1-3)[Gal3S(b1-4)]Glc
Outline: as §1

[30] = target: Fuc(a1-3)[Gal3S(b1-4)]GlcNAc
Outline: as §1

[31] = target: Fuc(a1-3)[Gal3S(b1-4)]GlcNAc6S
Outline: as §1

[32] = target: Fuc(a1-3)[GalNAc(b1-4)]GlcNAc
Outline: as §1

[33] = target: Fuc(a1-3)[GalNAc(b1-4)]GlcNAc6S
Outline: as §1

Fuc(a1-4)GlcNAc = target: Fuc(a1-4)GlcNAc
Outline: as §1

Fuc(b1-3)GlcNAc = target: Fuc(b1-3)GlcNAc
Outline: as §1

Gal(a1-2)Gal = target: Gal(a1-2)Gal
Outline: as §1

B1: AT3G44510(29) (Arabidopsis thaliana), F4J341 (protein)
chain: MEEHLQGRIKLHDGRYLAYKERGVPKDDAKFTIVLVHGFGSSKDMNFNVSQELVNEIGIYFVLYDRAGYGESDPNPKRSLKSEAYDVQELADGLEIGSRFYLIGISMGSYTVWSCLKHIPQRLAGVAMVAPVVNFRWPSIPKSLMPKDYRREVAKWSVWIANYFPGLLQWLVTQNMFSTTSMLEKNPVYFNDQDIEVLKHIKGFPMLTKEKLRERGVFGTLRSDFLVAFGDWDFDPADLPDPSLSGPEKGSSSVHIWQGYEDKVMPFQLQRCLCRKLPWIRYHEVPKGGHLIVHYDGICDAILKSLLLGEDLPMYKPKAVITEPA
- glycan array binding signal (z-score) [1]: -0.739
- glycan array binding signal (z-score) [2]: 0.219
- glycan array binding signal (z-score) [3]: -0.229
- glycan array binding signal (z-score) [4]: -0.277
- glycan array binding signal (z-score) [5]: -0.106
- glycan array binding signal (z-score) [6]: -0.936
- glycan array binding signal (z-score) [7]: -0.273
- glycan array binding signal (z-score) [8]: -0.137
- glycan array binding signal (z-score) [9]: -0.339
- glycan array binding signal (z-score) [10]: -0.566
- glycan array binding signal (z-score) [11]: -0.622
- glycan array binding signal (z-score) [12]: -0.284
- glycan array binding signal (z-score) [13]: -0.818
- glycan array binding signal (z-score) [14]: 6.03
- glycan array binding signal (z-score) [15]: -0.7
- glycan array binding signal (z-score) [16]: -0.246
- glycan array binding signal (z-score) (Fuc(a1-3)GlcNAc): -0.34
- glycan array binding signal (z-score) [17]: -0.61
- glycan array binding signal (z-score) [18]: -0.611
- glycan array binding signal (z-score) [19]: 0.643
- glycan array binding signal (z-score) [20]: -0.532
- glycan array binding signal (z-score) [21]: -0.197
- glycan array binding signal (z-score) [22]: 0.267
- glycan array binding signal (z-score) [23]: -0.232
- glycan array binding signal (z-score) [24]: 0.242
- glycan array binding signal (z-score) [25]: -0.416
- glycan array binding signal (z-score) [26]: -0.785
- glycan array binding signal (z-score) [27]: -0.697
- glycan array binding signal (z-score) [28]: -0.176
- glycan array binding signal (z-score) [29]: 0.074
- glycan array binding signal (z-score) [30]: -0.165
- glycan array binding signal (z-score) [31]: -0.612
- glycan array binding signal (z-score) [32]: -0.122
- glycan array binding signal (z-score) [33]: -0.561
- glycan array binding signal (z-score) (Fuc(a1-4)GlcNAc): 0.816
- glycan array binding signal (z-score) (Fuc(b1-3)GlcNAc): -0.537
- glycan array binding signal (z-score) (Gal(a1-2)Gal): -0.084
